Values quoted from earlier work, collected in patent US20040131981A1, “Color developing solution of silver halide color photographic photosensitive material and manufacturing method of color developing solution” (priority 2002, published 2004).

Settings: Compound I, pH buffering agent of alkali part solution

## NCCCC(N)C(=O)O (stereo not shown) [Compound I-18]
  Pka: 10.73
